Measured values: patent publication US6492563B2, “Fragrance precursors” (Givaudan SA, priority 2000, dated 2002)

Assay: Spray tests: release on cotton towels upon irradiation with a tanning lamp, evaluated by trained panel of perfumers
Design: key: 0: very weak; +: weak; ++: medium; +++: strong
Settings: cotton towel, after irradiation with tanning lamp; for Fragrance Target (perception): ester (III) / Fragrance Target (perception): aryl ketone (II): 45-75 μg/g cotton; for Fragrance Target (perception): ester (III): released ester named in cell; for Fragrance Target (perception): aryl ketone (II): released ketone named in cell
Method: 1 g of an approximately 0.2% phenacyl acetal (I) solution in ethanol was evenly sprayed on a Terry towel (white cotton towel, 25 cm ×25 cm, 45 g), corresponding to 45-75 μg/g cotton. The sprayed towels were allowed to dry in a dark and odorless place. When dry, the towels were irradiated for a few seconds up to a few minutes with a tanning lamp (Osram Ultra-Vitalux®, 300 W; at a distance of 50 cm, the light has approximately six to seven times the effect of the natural sunlight at noon on a sea-side mid-summer day). The evaluation was done by a trained panel of perfumers before and after irradiation. Before irradiation, the towels were judged to be odorless.

Compound	Fragrance Target (perception): ester (III)	Fragrance Target (perception): aryl ketone (II)	Global appreciation
CCOC(C)OCC(=O)c1ccc(OC)cc1 (stereo not drawn) [compound 1, 2-(1-Ethoxy-ethoxy)-1-(4-methoxy-phenyl)-ethanone]	ethyl acetate (0)	acetanisole (++)	+
COc1ccc(C(=O)COC(C)OCCc2ccccc2)cc1 (stereo not drawn) [compound 2, 1-(4-Methoxy-phenyl)-2-(1-phenethyloxy-ethoxy)-ethanone]	phenethyl acetate (+++)	acetanisole (++)	+++
CC/C=C\CCOC(C)OCC(=O)c1ccc(OC)cc1 (stereo not drawn) [compound 3, 2-(1-Hex-3(Z)-enyloxy-ethoxy)-1-(4-methoxy-phenyl)-ethanone]	cis-3-hexenyl acetate (++)	acetanisole (++)	++
COc1ccc(C(=O)COC(C)OCCC(C)CC(C)(C)C)cc1 (stereo not drawn) [compound 4, 1-(4-Methoxy-phenyl)-2-[1-(3,5,5-trimethyl-hexyloxy)-ethoxyl]-ethanone]	nonanyl acetate (+)	acetanisole (++)	+
CCCCCCOC(C)OCC(=O)c1ccc(OC)cc1 (stereo not drawn) [compound 5, 2-(1-Hexyloxy-ethoxy)-1-(4-methoxy-phenyl)-ethanone]	hexyl acetate (++)	acetanisole (++)	++
COc1ccc(C(=O)COC(C)OCCCc2ccccc2)cc1 (stereo not drawn) [compound 6, 1-(4-Methoxy-phenyl)-2-[1-(3-phenyl-propoxy)-ethoxy]-ethanone]	phenylpropyl acetate (++)	acetanisole (++)	++
COc1ccc(C(=O)COC(C)OCCC(C)CCC=C(C)C)cc1 (stereo not drawn) [compound 7, 2-[1-(3,7-Dimethyl-oct-6-enyloxy)-ethoxy]-1-(4-methoxy-phenyl)-ethanone]	citronellyl acetate (+)	acetanisole (++)	++
CCCCCCOC(C)OCC(=O)c1cc2c(cc1C)C(C)(C)C(C)CC2(C)C (stereo not drawn) [compound 8, 1-(3,5,5,6,8,8-Hexamethyl-5,6,7,8-tetrahydro-naphthalen-2-yl)-2-(1-hexyloxy-ethoxy)-ethanone]	hexyl acetate (+++)	Fixolide ® (++)	+++
CC/C=C\CCOC(C)OCC(=O)c1cc2c(cc1C)C(C)(C)C(C)CC2(C)C (stereo not drawn) [compound 9, 1-(3,5,5,6,8,8-Hexamethyl-5,6,7,8-tetrahydro-naphthalen-2-yl)-2-(1-hex-3(Z)-enyloxy-ethoxy)-ethanone]	cis-3-hexenyl acetate (+++)	Fixolide ® (++)	+++
CCOC(C)OCC(=O)c1cc2c(cc1C)C(C)(C)C(C)CC2(C)C (stereo not drawn) [compound 10, 2-(1-Ethoxy-ethoxy)-1-(3,5,5,6,8,8-hexamethyl-5,6,7,8-tetrahydro-naphthalen-2-yl)-ethanone]	ethyl acetate (0)	Fixolide ® (++)	++
CCCCCCOC(C)OCC(=O)c1ccc2ccccc2c1 (stereo not drawn) [compound 11, 2-(1-Hexyloxy-ethoxy)-1-naphthalen-2-yl-ethanone]	hexyl acetate (++)	Oranger Crystals ® (++)	++
CC(C)=CCCC(C)CCOC(C)OCC(=O)c1ccc2ccccc2c1 (stereo not drawn) [compound 12, 2-[1-(3,7-Dimethyl-oct-6-enyloxy)-ethoxy-]1-naphthalen-2-yl-ethanone]	citronellyl acetate (+)	Oranger Crystals ® (++)	++
CCC(C)(CCCC(C)C)OC(C)OCC(=O)c1ccc2ccccc2c1 (stereo not drawn) [compound 13, 2-[1-(1-Ethyl-1,5-dimethyl-hexyloxy)-ethoxy]-1-naphtalen-2-yl-ethanone]	tetrahydro linalyl acetate (++)	Oranger Crystals ® (++)	+++
CC(OCC(=O)c1ccc2ccccc2c1)OC1CCC(C(C)(C)C)CC1 (stereo not drawn) [compound 14, 2-[1-(4-t-Butyl-cyclohexyloxy)-ethoxy]-1-naphtalen-2-yl-ethanone]	t-butyl-cyclohexyl acetate (+)	Oranger Crystals ® (++)	+
COc1ccc(C(=O)COC(Cc2ccccc2)OC)cc1 (stereo not drawn) [compound 15, 1-(4-Methoxy-phenyl)-2-(1-methoxy-2-phenyl-ethoxy)-ethanone]	methyl phenyl acetate (+)	acetanisole (++)	+
